Our source for the binding values is PMC13391367.

Sequences of proteins named here, by UniProt entry; tags and fusion partners are left off.
UniProt Q5JVF3: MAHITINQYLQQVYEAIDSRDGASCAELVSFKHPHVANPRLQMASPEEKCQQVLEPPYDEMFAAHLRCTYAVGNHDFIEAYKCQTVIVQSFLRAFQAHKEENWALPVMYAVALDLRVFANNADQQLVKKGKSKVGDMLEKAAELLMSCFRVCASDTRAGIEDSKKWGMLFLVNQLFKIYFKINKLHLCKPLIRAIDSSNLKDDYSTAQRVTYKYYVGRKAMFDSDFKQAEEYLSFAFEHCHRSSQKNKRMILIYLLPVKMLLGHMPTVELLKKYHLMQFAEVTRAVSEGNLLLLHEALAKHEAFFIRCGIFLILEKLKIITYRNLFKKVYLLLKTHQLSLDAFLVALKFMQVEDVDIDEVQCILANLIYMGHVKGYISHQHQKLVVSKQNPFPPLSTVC

The target in this assay is PCID2–3×Flag (endogenously tagged) (human (endogenous in HeLa)) (UniProt Q5JVF3). The assay is described as follows: co-IP; low-stringency anti-Flag IP from extracts of endogenously 3×Flag-tagged HeLa lines, western blot with GANP-, ZFC3H1-, MTR4-, EXOSC10-, PCID2- and Flag-specific antibodies. On the technique in general: In western blotting, separated proteins are transferred to a membrane and probed.

These are yes or no findings as the source states them, for the method shown. In cells and extracts the contact can be indirect. Some results given as binding are weak or reduced against the parent protein; the word gives no strength.

B1: EXOSC10 (endogenous exosome component) (protein, UniProt Q01780 1-885)
chain: MAPPSTREPRVLSATSATKSDGEMVLPGFPDADSFVKFALGSVVAVTKASGGLPQFGDEYDFYRSFPGFQAFCETQGDRLLQCMSRVMQYHGCRSNIKDRSKVTELEDKFDLLVDANDVILERVGILLDEASGVNKNQQPVLPAGLQVPKTVVSSWNRKAAEYGKKAKSETFRLLHAKNIIRPQLKFREKIDNSNTPFLPKIFIKPNAQKPLPQALSKERRERPQDRPEDLDVPPALADFIHQQRTQQVEQDMFAHPYQYELNHFTPADAVLQKPQPQLYRPIEETPCHFISSLDELVELNEKLLNCQEFAVDLEHHSYRSFLGLTCLMQISTRTEDFIIDTLELRSDMYILNESLTDPAIVKVFHGADSDIEWLQKDFGLYVVNMFDTHQAARLLNLGRHSLDHLLKLYCNVDSNKQYQLADWRIRPLPEEMLSYARDDTHYLLYIYDKMRLEMWERGNGQPVQLQVVWQRSRDICLKKFIKPIFTDESYLELYRKQKKHLNTQQLTAFQLLFAWRDKTARREDESYGYVLPNHMMLKIAEELPKEPQGIIACCNPVPPLVRQQINEMHLLIQQAREMPLLKSEVAAGVKKSGPLPSAERLENVLFGPHDCSHAPPDGYPIIPTSGSVPVQKQASLFPDEKEDNLLGTTCLIATAVITLFNEPSAEDSKKGPLTVAQKKAQNIMESFENPFRMFLPSLGHRAPVSQAAKFDPSTKIYEISNRWKLAQVQVQKDSKEAVKKKAAEQTAAREQAKEACKAAAEQAISVRQQVVLENAAKKRERATSDPRTTEQKQEKKRLKISKKPKDPEPPEKEFTPYDYSQSDFKAFAGNSKSKVSSQFDPNKQTPSGKKCIAAKKIKQSVGNKSMSFPTGKSDRGFRYNWPQR
As for B1, the binding result is recorded as “binds”.
